Reference: PMC7316825
Results are given in words; binding and its absence hold for the method and conditions named. Binding seen in cells or lysates may run through a third protein. Some results given as binding are weak or reduced against the parent protein; the word gives no strength.

Protein sequences, listed by entry. Tags and fused reporters are not part of them.
UniProt Q07065: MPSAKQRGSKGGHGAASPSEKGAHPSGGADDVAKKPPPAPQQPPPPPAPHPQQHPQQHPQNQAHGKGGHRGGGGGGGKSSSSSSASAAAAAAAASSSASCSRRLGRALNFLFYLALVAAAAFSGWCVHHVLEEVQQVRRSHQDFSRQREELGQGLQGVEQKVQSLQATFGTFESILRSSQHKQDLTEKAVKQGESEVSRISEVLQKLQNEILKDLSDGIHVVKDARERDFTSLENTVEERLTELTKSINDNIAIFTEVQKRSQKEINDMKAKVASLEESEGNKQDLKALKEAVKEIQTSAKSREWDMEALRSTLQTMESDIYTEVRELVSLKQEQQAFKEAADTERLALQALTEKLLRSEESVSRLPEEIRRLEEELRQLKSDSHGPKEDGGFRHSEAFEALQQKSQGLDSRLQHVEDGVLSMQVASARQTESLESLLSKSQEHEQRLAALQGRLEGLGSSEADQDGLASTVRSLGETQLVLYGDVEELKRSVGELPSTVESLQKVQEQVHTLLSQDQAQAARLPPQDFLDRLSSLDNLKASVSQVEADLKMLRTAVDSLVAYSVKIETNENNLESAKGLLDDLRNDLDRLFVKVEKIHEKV

Molecular target: T1, Retinol-binding protein 1 (UniProt P09455)
T1 sequence: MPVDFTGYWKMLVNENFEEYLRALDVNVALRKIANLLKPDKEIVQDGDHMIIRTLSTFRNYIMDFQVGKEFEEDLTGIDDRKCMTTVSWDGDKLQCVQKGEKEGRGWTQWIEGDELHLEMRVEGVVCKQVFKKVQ
Test: co-IP; Co-IP kit (Thermo Scientific); SCC15 cell lysate incubated with the indicated antibodies overnight at 4 °C, protein A/G beads 2 h at 4 °C, washed three times with IP lysis buffer, western blot (anti-RBP1, anti-CKAP4, anti-IgG)

## Cytoskeleton-associated protein 4 (from UniProt Q07065 1-602)
  binding: binds
